Holding throughout (assay): cells
Experiment [1] concerns phosphorylated Crkl (p-Crkl). Particulars: Homo sapiens, KU812, 2 h, read-out: IC50imatinib, KU812, no NSAIDs.
Experiment [2] concerns phosphorylated Crkl (p-Crkl). Particulars: Homo sapiens.
Experiment [3] has as its system phosphorylated Crkl (p-Crkl). The note with it: Homo sapiens, K562, 2 h, read-out: IC50imatinib, K562, no NSAIDs.

The structures appear in SMILES notation. Where two headings read alike, the source gives them in different places.

Drawing on article PMC3364120 (British Journal of Cancer, 2012), this text covers IC50 for 1 compound.

On to `Cc1ccc(NC(=O)c2ccc(CN3CCN(C)CC3)cc2)cc1Nc1nccc(-c2cccnc2)n1` [imatinib], for which the IC50 in experiment [1] is 3500 ± 600 nM; in experiment [2] (2 h, read-out: range of IC50imatinib) it was 250 to 1150 nM; in experiment [2] (read-out: median IC50imatinib), 1200 nM; in experiment [2] (read-out: range of IC50imatinib) it was 500 to 1700 nM; in experiment [3], 5700 ± 800 nM.
